# According to PubChem BioAssay AID2685 (National Center for Advancing Translational Sciences (NCATS), 2010):
# This is one part of the list. Shown are side measurements of this screen, not its main read-out; they come without a call. Compounds called inactive in the main read-out are mostly missing here. Potencies come from curve fits of mixed quality, noted in brackets.
# Assay: qHTS Assay for Lipid Storage Modulators in Drosophila S3 Cells;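 on cell number change: cells counted by Cell Tracker Red CMTPX staining in the red channel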
# Conditions: BODIPY lipid droplet fluorescence, 18-24 h; for cell number change: measured here: cell count max response, cells fed with added oleic acid
# In short: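 Drosophila S3 cells got compounds at several concentrations plus oleic acid (400 uM solution). Laser-scanning cytometry with 488 nm excitation read lipid droplets at 500-530 nm and cells at 575-640 nm. Percent activity was relative to 20 uM Triacsin C.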
# [1] = measured here: lipid fluorescence (Fed channel) AC50, cells fed with added oleic acid
# [2] = measured here: cell number channel AC50, cells fed with added oleic acid
SMILES,cell number change,AC50 [1],AC50 [2]
CCOC(=O)C(C(=O)Nc1ccccc1)C1CCCCC1 (centres undefined),8.77%,"18.4 µM [rising, single point]",–
O=c1c2c(-c3ccccc3)csc2nc2c3ccccc3c(NCCN3CCOCC3)nn12,-63.9%,"29.1 µM [falling, single point]","29.1 µM [falling, partial curve, poor fit]"
O=C(COc1ccc(Br)cc1Cl)NC(=O)NC1CCCC1,-43.9%,"18.4 µM [falling, single point]","29.1 µM [falling, single point]"
CC(C)(C)C(=O)/C=c1\[nH]c(=O)/c(=C\c2ccc(C#N)cc2)s1,-40.1%,"4.11 µM [rising, single point]","10.3 µM [falling, partial curve, poor fit]"
CC(=O)Nc1ccc2c(c1)nc1n2CCOC1,-111%,"0.13 µM [falling, full curve, poor fit]","18.4 µM [falling, partial curve]"
Cc1cc(C)c(S(=O)(=O)c2cccc(Cl)c2)c(Cl)n1,16.9%,–,–
COc1c(C)cc(C(=O)C2CCCN(S(=O)(=O)N(C)C)C2)cc1C (centres undefined),-10.9%,–,–
C=CCN1C(=O)C(Cc2cccc(Cl)c2)S/C1=N/N=C/c1ccco1 (centres undefined),–,"2.59 µM [rising, partial curve]",–
O=C(CC(=O)N/N=C\c1cccc(Cl)c1Cl)NCc1ccccc1,20.8%,"0.00461 µM [rising, full curve]",–
O=C(Nc1ccc(N2CCOCC2)cc1)Nc1cnsn1,87.4%,–,"16.4 µM [rising, single point]"
CCOc1ccc(-c2cccc(NC(=O)c3cccs3)c2)nn1,36.6%,–,"2.31 µM [rising, full curve]"
CC(C)NS(=O)(=O)c1ccc(NC(=O)C(C)OC(=O)CCCOc2ccccc2)cc1 (centres undefined),145%,–,"23.1 µM [rising, partial curve]"
COc1ccc(-n2c(SC)nc(O)c(Cc3ccccc3)c2=O)cc1,-2.51%,–,–
O=C(c1cccc([N+](=O)[O-])c1)N1CCN(Cc2ccccc2)CC1,-12.8%,–,"6.51 µM [falling, single point]"
Cc1ccc(C(=O)NCc2nnc(SCC(=O)Nc3ccccc3)n2C)cc1,–,"6.51 µM [rising, partial curve, poor fit]",–
Cc1cc(Cl)ccc1OCC(=O)Nc1cccnc1,-26.4%,"29.1 µM [rising, single point]","0.231 µM [falling, full curve, poor fit]"
CCN(CC)c1ccc(/C=N/Nc2nc(C)cc(C)n2)cc1,17.5%,"0.366 µM [rising, full curve, poor fit]",–
CC1(C)CC(=O)C2=C(C1)OC1=C(C(=O)CC(C)(C)C1)C2c1ccc(O)cc1O,-31.6%,"14.6 µM [falling, partial curve]","29.1 µM [falling, single point]"
CCCN1CC=C2C(C#N)=C(N)C(C#N)(C#N)C(c3cc(OC)ccc3OC)C2C1 (centres undefined),22.5%,–,–
CCOC(=O)c1nc2ccccc2c(=O)[nH]1,-11.9%,"0.058 µM [falling, full curve, poor fit]",–

# Retrieved by structure from the entries so far:
SMILES,cell number change,AC50 [1],AC50 [2]
Cc1cc(C)c(S(=O)(=O)c2cccc(Cl)c2)c(Cl)n1,16.9%,–,–
COc1c(C)cc(C(=O)C2CCCN(S(=O)(=O)N(C)C)C2)cc1C (centres undefined),-10.9%,–,–

# Next part:

SMILES,cell number change,AC50 [1],AC50 [2]
NC(=O)c1cccc(NC(=O)Nc2ccc(Cl)cc2)c1,-1.1%,"29.1 µM [rising, single point]",–
Cc1nn(-c2ncc(C(F)(F)F)cc2Cl)c(=O)n1-c1cccc(F)c1,-39.9%,"29.1 µM [falling, partial curve, poor fit]","1.84 µM [falling, full curve, poor fit]"
CCCCCC(=O)NC(=S)NNC(=O)CC,16.2%,"1.84 µM [falling, partial curve, poor fit]",–
COc1cccc(/C=C/C(=O)Nc2ccc3nc4n(c(=O)c3c2)CCCC4)c1OC,-17.5%,"25.9 µM [falling, single point]",–
Cc1c(-n2c(SCC(=O)O)nnc2-c2ccccc2Cl)c(=O)n(-c2ccccc2)n1C,-2.53%,"0.461 µM [falling, full curve]",–
O=C(NCCc1c[nH]c2ccccc12)c1c(Cl)nc2sccn12,-7.05%,–,–
O=S(=O)(c1ccc(Cl)nc1)N(Cc1ccccc1)Cc1ccccc1,16.6%,"29.1 µM [rising, single point]",–
COC(=O)c1ccccc1S(=O)(=O)N1CCC(C(=O)NC2CCCCC2C)CC1 (centres undefined),6.09%,"0.411 µM [rising, partial curve]",–
CC(C)NC(=O)N1CC(c2ccccc2)C(c2ccc(Cl)cc2)=N1 (centres undefined),-20.8%,"29.1 µM [falling, single point]",–
COc1ccc(C(=O)N/C(=C/c2cccs2)c2nc3ccccc3[nH]2)cc1OC,-22.6%,–,"6.51 µM [rising, single point]"
CC(C)c1ccc(C(C(=O)NC2CCCCC2)N(C(=O)c2ccccn2)c2cccnc2)cc1 (centres undefined),-0.311%,"0.651 µM [rising, full curve]","0.13 µM [rising, full curve, poor fit]"
CCc1ccccc1NC(=O)/C(C#N)=C/c1ccc(Sc2ccccc2)o1,–,"29.1 µM [falling, single point]",–
O=C(c1cn(Cc2ccccc2)nc1-c1ccccc1)N1CCN(c2ccccn2)CC1,12.9%,"6.51 µM [rising, partial curve]",–
Cc1ccc(S(=O)(=O)N(C)c2ccc(OC(=O)c3cccs3)cc2)cc1C,-6.84%,–,–
COc1ccc(Cl)cc1Nc1nnc(-c2ccncc2)s1,11.6%,"0.092 µM [rising, full curve, poor fit]",–
O=C(O)CC1(CC(=O)Nc2ccc3ccccc3c2)CCCCC1,-61.3%,"5.8 µM [rising, full curve, poor fit]","5.8 µM [falling, partial curve]"
CC1CC(C)CN(C(=O)/C=C/c2ccc(S(=O)(=O)N3CCOCC3)cc2)C1 (centres undefined),-8.03%,–,–
CCn1cc(C(=O)NCC(OC)OC)c(=O)c2cc(S(=O)(=O)N3CCCC3)ccc21,8.02%,"29.1 µM [rising, partial curve]",–
O=C(c1ccccc1)N1CCN(C2CCCCCC2)CC1,–,"18.4 µM [falling, partial curve]",–
O=S(=O)(c1ccc(Br)cc1)c1nc(-c2ccccc2)oc1NCc1cccnc1,-0.545%,–,–

# Rewritten with tabs: 2 of the compounds above
SMILES	cell number change	AC50 [1]	AC50 [2]
CCOC(=O)C(C(=O)Nc1ccccc1)C1CCCCC1 (centres undefined)	8.77%	18.4 µM [rising, single point]	–
O=c1c2c(-c3ccccc3)csc2nc2c3ccccc3c(NCCN3CCOCC3)nn12	-63.9%	29.1 µM [falling, single point]	29.1 µM [falling, partial curve, poor fit]

# (further entries)

SMILES,cell number change,AC50 [1],AC50 [2]
O=C(Nn1c(=O)[nH]c2ccccc2c1=O)c1ccco1,-29.9%,"29.1 µM [falling, single point]","0.82 µM [falling, full curve, poor fit]"
CCc1noc(C)c1C(=O)N1CCCSC1=Nc1ccccc1Cl,29.7%,–,–
CCOc1cc(/C=N\Nc2ccc([N+](=O)[O-])cc2)ccc1OCC(=O)Nc1ccc(C)c(C)c1,62.4%,–,"29.1 µM [rising, single point]"
COC(=O)c1ccc(Oc2nc(C(N)=O)cc(-c3ccccc3)n2)cc1,–,"2.59 µM [rising, full curve]","2.91 µM [rising, partial curve]"
COc1ccc(N2CCN(C(=O)CNC(=O)c3nn(-c4ccc(OC)cc4)c(=O)c4ccccc34)CC2)cc1,-2.7%,"29.1 µM [falling, single point]",–
O=C(CN(Cc1ccc(F)cc1)C(=O)CNS(=O)(=O)c1ccccc1)NCc1ccco1,-4.17%,"0.651 µM [falling, single point]",–
CCC(C)(CCNC(=O)Cc1ccccc1)c1ccccc1OC (centres undefined),-18.6%,"0.00461 µM [falling, full curve, poor fit]",–
CCOc1ccc2nc(N(CCCN(C)C)C(=O)c3ccc(C(=O)c4ccccc4)cc3)sc2c1,22.8%,"9.2 µM [rising, partial curve, poor fit]",–
CC(C)(C)n1cnc2cc(NC(=O)c3ccc(Cl)cc3)ccc21,-21.5%,"4.11 µM [falling, full curve]",–
COc1cccc([C@H](O)Cn2cc(-c3ccc(CON=C(C)C)cc3)nn2)c1,3.78%,"1.03 µM [rising, full curve, poor fit]",–
O=S(=O)(c1ccc(Br)cc1)N1CCN(c2cc(-c3ccccc3)nc3ncnn23)CC1,18%,–,–
O=C(c1ccccc1)c1cccc(C(=O)c2ccccc2)c1,-0.35%,–,–
O=C(CN1C(=O)NC2(CCCC2)C1=O)Nc1ccc(F)c(Cl)c1,-10.5%,"35.5 µM [falling, single point]",–
Cc1cccc(N(C)C(=O)CN2C(=O)COc3ccc(S(=O)(=O)N4CCCCCC4)cc32)c1,-37.8%,"0.461 µM [falling, partial curve, poor fit]","16.4 µM [falling, partial curve]"
CC(C)Cn1nc(C(=O)NCc2ccccc2CN2CCCC2)c2ccccc2c1=O,14.5%,"1.3 µM [rising, full curve]","0.092 µM [rising, full curve, poor fit]"
O=C(COC(=O)c1cccs1)NCc1ccco1,1.12%,–,–
CC(NC(=O)Cc1ccc(Br)cc1)c1ccccc1 (centres undefined),3.3%,"29.1 µM [rising, single point]",–
COc1ccc(S(=O)(=O)N2CCN(C(=O)c3ccco3)CC2)cc1OC,–,"0.116 µM [falling, full curve, poor fit]","0.116 µM [falling, full curve, poor fit]"
CCN(Cc1ccccc1)C(=O)C1CCN(c2ncnc3c2nc2n3CCCCC2)CC1,-14.9%,"23.1 µM [falling, single point]",–
